Experimental data as given in BigSolDB 2.1.

COc1ccc2cc([C@H](C)C(=O)O)ccc2c1
Conditions	solubility (mole fraction)
in acetone, 278.25 K	0.000946
in acetone, 283.6 K	0.00137
in acetone, 288.3 K	0.00164
in acetone, 293.05 K	0.00216
in acetone, 298.45 K	0.00281
in acetone, 303.2 K	0.00362
in acetone, 308.7 K	0.00459
in acetone, 313.45 K	0.00592
in acetone, 318.1 K	0.00721
in acetone, 320.15 K	0.0084
in ethanol, 278.15 K	0.00487
in ethanol, 283.7 K	0.00607
in ethanol, 288.15 K	0.00757
in ethanol, 293.1 K	0.00923
in ethanol, 298.5 K	0.0118
in ethanol, 303.25 K	0.0143
in ethanol, 308.65 K	0.0172
in ethanol, 313.4 K	0.0212
in ethanol, 318.8 K	0.0246
in ethanol, 320.15 K	0.0279
in ethyl acetate, 278.2 K	0.0145
in ethyl acetate, 283.45 K	0.0172
in ethyl acetate, 288.15 K	0.0196
in ethyl acetate, 293.1 K	0.0229
in ethyl acetate, 298.5 K	0.0271
in ethyl acetate, 303.25 K	0.0307
in ethyl acetate, 308.65 K	0.036
in ethyl acetate, 313.7 K	0.0415
in ethyl acetate, 318.7 K	0.0476
in ethyl acetate, 320.1 K	0.0499
in isopropanol, 278.15 K	0.00523
in isopropanol, 283.6 K	0.00664
in isopropanol, 288.35 K	0.00803
in isopropanol, 293.75 K	0.00975
in isopropanol, 298.5 K	0.0118
in isopropanol, 303.25 K	0.0143
in isopropanol, 308.65 K	0.0177
in isopropanol, 313.4 K	0.0212
in isopropanol, 318.8 K	0.0259
in isopropanol, 320.15 K	0.0272
in methanol, 278.2 K	0.00612
in methanol, 283.6 K	0.00729
in methanol, 288.15 K	0.00875
in methanol, 293.1 K	0.0105
in methanol, 298.15 K	0.0126
in methanol, 303.9 K	0.0154
in methanol, 308.65 K	0.0184
in methanol, 313.4 K	0.0216
in methanol, 318.8 K	0.0255
in methanol, 320.15 K	0.0273
